Test results from the supplement of paper PMC10849652.
The list shows a part of the results.

Sequences of proteins named here, by UniProt entry; tags and fusion partners are left off. A change or cut given only in a name is not applied to a line headed by its entry.
UniProt Q86VS8: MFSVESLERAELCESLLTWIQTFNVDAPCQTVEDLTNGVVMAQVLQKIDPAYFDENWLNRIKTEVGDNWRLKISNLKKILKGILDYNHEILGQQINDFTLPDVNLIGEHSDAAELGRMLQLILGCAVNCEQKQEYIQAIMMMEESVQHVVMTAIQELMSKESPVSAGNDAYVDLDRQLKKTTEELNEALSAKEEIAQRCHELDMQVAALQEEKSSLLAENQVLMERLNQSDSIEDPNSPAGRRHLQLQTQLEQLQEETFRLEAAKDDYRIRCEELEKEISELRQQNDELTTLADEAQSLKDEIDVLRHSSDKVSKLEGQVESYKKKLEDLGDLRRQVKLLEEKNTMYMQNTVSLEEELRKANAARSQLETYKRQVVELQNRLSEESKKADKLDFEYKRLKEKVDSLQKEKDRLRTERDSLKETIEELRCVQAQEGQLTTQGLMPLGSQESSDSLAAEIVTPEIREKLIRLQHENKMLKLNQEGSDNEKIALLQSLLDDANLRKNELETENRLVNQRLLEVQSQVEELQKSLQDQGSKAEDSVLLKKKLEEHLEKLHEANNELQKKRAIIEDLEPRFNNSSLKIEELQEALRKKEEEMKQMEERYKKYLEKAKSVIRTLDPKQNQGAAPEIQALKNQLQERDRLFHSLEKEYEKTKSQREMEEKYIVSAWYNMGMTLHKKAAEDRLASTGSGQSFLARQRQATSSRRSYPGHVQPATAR
UniProt Q14103: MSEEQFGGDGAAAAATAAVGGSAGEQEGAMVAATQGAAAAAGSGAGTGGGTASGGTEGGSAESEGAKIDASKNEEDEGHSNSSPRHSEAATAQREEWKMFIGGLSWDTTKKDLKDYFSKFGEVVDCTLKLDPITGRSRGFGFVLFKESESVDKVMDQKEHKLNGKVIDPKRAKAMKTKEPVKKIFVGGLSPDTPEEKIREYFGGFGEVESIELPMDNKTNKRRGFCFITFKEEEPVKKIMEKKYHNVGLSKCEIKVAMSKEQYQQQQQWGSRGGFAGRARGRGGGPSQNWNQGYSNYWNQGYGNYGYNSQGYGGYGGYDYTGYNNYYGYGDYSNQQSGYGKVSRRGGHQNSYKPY
UniProt P00492: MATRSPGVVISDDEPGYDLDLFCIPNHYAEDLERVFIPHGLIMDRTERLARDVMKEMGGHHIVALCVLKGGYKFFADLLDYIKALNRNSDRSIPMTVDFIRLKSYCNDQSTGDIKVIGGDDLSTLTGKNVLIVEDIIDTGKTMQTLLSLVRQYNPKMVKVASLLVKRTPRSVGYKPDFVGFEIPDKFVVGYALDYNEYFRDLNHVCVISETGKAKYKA
UniProt Q3SXM5: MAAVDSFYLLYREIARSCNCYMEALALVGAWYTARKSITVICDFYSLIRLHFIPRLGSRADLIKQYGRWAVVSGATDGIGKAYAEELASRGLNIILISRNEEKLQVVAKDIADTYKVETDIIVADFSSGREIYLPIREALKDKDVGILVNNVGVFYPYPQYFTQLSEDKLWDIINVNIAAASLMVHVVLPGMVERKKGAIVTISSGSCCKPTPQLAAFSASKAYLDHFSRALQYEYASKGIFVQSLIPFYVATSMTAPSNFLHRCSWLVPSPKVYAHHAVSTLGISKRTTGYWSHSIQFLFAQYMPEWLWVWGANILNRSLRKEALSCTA
UniProt P35914: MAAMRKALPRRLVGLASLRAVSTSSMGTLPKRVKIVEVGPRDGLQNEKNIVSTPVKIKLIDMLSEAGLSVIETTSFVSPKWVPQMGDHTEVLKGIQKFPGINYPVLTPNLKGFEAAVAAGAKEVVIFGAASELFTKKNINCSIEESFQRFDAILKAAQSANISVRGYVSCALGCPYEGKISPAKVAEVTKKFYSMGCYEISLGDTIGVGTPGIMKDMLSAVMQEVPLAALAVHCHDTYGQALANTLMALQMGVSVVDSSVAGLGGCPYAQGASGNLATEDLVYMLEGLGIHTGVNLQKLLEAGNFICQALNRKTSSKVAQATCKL
UniProt Q9ULT8: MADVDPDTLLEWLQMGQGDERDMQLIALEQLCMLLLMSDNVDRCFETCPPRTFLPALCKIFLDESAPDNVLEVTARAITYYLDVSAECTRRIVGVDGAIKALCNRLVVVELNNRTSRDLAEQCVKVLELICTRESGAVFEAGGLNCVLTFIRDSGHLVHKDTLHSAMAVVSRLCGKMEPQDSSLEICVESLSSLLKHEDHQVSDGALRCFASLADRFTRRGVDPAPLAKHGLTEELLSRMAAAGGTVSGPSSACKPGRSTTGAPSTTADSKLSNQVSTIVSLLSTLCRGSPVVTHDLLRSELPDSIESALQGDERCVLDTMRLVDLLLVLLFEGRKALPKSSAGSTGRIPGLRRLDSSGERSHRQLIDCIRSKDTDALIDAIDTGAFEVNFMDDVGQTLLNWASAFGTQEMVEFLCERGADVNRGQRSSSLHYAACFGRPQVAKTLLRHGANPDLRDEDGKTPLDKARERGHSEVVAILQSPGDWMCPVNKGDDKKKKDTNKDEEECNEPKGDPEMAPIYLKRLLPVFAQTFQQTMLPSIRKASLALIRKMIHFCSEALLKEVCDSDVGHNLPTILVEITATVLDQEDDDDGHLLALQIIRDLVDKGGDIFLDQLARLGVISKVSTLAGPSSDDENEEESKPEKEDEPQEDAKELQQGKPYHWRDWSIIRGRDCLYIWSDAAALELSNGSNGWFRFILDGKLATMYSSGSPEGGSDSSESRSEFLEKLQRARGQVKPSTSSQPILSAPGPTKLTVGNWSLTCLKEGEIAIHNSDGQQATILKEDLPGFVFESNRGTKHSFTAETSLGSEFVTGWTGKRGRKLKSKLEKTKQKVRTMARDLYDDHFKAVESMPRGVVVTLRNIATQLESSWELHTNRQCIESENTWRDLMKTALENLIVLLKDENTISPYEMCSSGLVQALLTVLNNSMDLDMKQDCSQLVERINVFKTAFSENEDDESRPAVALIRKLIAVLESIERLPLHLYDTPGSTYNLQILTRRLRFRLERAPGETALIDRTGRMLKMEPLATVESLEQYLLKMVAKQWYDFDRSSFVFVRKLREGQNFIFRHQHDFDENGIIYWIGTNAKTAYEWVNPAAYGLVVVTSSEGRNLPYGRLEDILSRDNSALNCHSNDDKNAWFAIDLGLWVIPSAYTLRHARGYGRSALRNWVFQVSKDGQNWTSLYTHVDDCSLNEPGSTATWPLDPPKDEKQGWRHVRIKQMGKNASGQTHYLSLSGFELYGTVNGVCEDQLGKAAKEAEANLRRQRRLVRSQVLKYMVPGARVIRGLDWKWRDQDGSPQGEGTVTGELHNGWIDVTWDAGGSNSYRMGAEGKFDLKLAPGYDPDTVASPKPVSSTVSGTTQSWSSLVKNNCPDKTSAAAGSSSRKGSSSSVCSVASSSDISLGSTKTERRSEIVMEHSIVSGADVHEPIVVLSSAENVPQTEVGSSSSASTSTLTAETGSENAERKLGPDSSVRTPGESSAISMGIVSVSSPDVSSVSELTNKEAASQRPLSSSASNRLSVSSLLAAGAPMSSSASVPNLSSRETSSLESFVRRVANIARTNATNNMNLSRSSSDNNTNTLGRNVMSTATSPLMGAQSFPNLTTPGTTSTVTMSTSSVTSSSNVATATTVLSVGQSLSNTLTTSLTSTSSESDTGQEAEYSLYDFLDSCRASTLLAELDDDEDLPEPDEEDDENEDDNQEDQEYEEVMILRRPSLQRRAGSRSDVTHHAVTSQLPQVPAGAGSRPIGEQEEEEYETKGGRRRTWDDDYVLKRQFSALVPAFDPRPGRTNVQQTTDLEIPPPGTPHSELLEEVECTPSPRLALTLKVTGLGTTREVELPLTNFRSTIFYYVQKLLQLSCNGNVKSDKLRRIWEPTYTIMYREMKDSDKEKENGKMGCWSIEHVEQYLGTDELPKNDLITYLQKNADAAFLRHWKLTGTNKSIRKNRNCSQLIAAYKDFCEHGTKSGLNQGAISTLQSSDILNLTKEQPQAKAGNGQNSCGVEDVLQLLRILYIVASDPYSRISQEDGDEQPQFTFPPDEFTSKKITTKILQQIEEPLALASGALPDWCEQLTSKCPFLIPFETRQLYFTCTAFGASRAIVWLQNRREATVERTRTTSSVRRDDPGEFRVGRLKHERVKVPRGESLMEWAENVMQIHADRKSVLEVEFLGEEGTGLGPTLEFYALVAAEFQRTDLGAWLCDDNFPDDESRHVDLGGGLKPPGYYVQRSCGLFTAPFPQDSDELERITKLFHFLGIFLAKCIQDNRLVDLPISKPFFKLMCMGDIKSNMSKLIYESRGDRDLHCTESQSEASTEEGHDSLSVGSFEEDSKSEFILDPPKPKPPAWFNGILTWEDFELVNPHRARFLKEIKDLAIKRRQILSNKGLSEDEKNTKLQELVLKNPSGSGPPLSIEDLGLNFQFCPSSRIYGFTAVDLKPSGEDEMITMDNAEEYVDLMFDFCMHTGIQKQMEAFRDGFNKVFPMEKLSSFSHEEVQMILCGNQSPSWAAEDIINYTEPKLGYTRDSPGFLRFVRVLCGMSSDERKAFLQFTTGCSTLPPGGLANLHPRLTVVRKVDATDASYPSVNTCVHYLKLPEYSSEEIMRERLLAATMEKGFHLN
UniProt P52597: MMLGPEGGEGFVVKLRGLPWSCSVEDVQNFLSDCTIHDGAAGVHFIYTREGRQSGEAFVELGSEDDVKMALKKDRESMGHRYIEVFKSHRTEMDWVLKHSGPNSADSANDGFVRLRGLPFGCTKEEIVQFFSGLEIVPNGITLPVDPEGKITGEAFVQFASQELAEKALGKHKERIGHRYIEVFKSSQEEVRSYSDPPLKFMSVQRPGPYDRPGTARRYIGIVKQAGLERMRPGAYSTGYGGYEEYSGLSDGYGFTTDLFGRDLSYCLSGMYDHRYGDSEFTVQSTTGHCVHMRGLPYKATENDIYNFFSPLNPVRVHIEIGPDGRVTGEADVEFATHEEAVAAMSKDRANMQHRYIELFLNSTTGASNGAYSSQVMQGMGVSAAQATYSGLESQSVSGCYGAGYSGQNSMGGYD
UniProt P11021: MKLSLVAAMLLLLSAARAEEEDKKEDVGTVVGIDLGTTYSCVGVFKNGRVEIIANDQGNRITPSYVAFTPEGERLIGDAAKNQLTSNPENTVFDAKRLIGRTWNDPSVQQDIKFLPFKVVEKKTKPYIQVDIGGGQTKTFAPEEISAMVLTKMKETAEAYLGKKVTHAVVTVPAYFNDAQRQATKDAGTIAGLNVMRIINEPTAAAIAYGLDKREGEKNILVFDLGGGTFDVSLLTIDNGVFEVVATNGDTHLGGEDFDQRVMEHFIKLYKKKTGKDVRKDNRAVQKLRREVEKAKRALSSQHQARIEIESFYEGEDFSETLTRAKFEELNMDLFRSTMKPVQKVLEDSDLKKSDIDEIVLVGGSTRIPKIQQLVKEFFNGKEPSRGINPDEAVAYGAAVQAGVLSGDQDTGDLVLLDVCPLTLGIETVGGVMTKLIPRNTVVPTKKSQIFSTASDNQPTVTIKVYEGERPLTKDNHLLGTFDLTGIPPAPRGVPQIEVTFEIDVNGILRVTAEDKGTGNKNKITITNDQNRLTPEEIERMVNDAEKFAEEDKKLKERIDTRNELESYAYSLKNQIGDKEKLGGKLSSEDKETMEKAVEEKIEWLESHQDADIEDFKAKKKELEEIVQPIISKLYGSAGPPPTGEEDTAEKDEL
UniProt P05114: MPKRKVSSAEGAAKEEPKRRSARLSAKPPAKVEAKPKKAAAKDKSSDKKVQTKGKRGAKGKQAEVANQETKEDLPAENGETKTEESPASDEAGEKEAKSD
UniProt P08238, whole entry, looked up: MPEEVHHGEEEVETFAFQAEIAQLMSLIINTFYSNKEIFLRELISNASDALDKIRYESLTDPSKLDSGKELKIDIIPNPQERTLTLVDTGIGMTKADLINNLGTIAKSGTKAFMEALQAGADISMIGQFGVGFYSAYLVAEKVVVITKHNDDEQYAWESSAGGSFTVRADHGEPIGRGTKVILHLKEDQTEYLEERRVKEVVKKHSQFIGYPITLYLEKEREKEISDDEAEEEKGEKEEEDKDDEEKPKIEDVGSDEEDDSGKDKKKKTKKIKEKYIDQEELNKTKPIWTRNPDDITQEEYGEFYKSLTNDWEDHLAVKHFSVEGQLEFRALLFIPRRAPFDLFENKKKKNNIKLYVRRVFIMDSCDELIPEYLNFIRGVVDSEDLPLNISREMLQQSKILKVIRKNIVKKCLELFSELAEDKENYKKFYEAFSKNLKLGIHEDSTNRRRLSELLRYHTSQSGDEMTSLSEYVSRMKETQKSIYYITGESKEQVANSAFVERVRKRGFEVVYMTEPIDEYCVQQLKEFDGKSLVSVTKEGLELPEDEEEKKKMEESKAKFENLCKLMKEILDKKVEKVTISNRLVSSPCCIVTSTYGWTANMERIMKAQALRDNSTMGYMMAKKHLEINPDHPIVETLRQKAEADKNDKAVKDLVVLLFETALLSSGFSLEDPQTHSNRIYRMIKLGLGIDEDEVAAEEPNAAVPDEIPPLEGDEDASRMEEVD

Legend:
Assay in all cases: log2 fold change, soluble protein after heating vs DMSO (PISA); higher = thermal stabilisation; K562 lysate, 10 uM; active = over 0.2 and 3.5 SD of the protein, either way, in both replicates (recomputed)
[1] = compound: CCCS(=O)(=O)Nc1ccc(F)c(C(=O)c2c[nH]c3ncc(-c4ccc(Cl)cc4)cc23)c1F [vemurafenib]
Method in brief: (§1)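 Dounce homogenisation of K562 pellets in PBS pH 7.4 with 1 mM MgCl2 produced a crude extract, used at 1 mg/mL protein. Exposure to 10 μM compound lasted 30 min, and aliquots were then heated for 3 min across 48°C-58°C, pooled and brought to 0.5% NP-40 at 4°C. The supernatant after 21,000xg for 90 min was quantified by TMTpro 16plex LC-MS/MS with channel sums equalised. Duplicate values are given as log-two fold change in thermal stability relative to solvent controls.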

[2] = compound: CCCS(=O)(=O)Nc1ccc(F)c(C(=O)c2c[nH]c3ncc(Cl)cc23)c1F
Method in brief: as §1

[3] = compound: CCN(CCCOc1ccc2c(Nc3cc(CC(=O)Nc4cccc(F)c4)[nH]n3)ncnc2c1)CCOP(=O)(O)O [barasertib]
Method in brief: as §1

[4] = compound: CC[C@@H]1C(=O)N(C)c2cnc(Nc3ccc(C(=O)NC4CCN(C)CC4)cc3OC)nc2N1C1CCCC1
Method in brief: as §1

[5] = compound: CC[C@@H]1C(=O)N(C)c2cnc(Nc3ccc(C(=O)N[C@H]4CC[C@H](N5CCN(CC6CC6)CC5)CC4)cc3OC)nc2N1C(C)C [volasertib]
Method in brief: as §1

[6] = compound: CCn1c(C(=O)N(C2CC2)C2CC2)cc2c3c(ncn3C)c(Nc3cc(C)n(C)n3)nc21
Method in brief: as §1

[7] = compound: CCn1cc(-c2ccnc3[nH]c(-c4cccc(CN(C)C)c4)cc23)c(-c2ccc(NC(=O)N(C)C)cc2)n1
Method in brief: as §1

[8] = compound: CN1CCC(CNc2ccc3ncc(-c4cccc(OC(F)(F)F)c4)n3n2)CC1
Method in brief: as §1

[9] = compound: CN1CCN(CCOc2cc(OC3CCOCC3)c3c(Nc4c(Cl)ccc5c4OCO5)ncnc3c2)CC1 [saracatinib]
Method in brief: as §1

[10] = compound: CN1CCN(c2nc(C3=C(c4c[nH]c5ccccc45)C(=O)NC3=O)c3ccccc3n2)CC1 [sotrastaurin]
Method in brief: as §1

Measured: log2 fold change

HERC4 (UniProt Q5GLZ8)
inactive: [1] 0.041 | [2] 0.016 | [3] 0.01 | [4] -0.032 | [5] -0.009 | [6] 0.01 | [7] -0.14 | [8] 0.061 | [9] 0.007 | [10] 0.016

HSP90AB4P (UniProt Q58FF6)
inactive: [1] 0.085 | [2] -0.01 | [3] 0.311 | [4] -0.175 | [5] 0.033 | [6] -0.211 | [7] 0.263 | [8] 0.036 | [9] 0.078 | [10] 0.022

HSD17B10 (UniProt Q99714)
inactive: [1] 0.017 | [2] -0.016 | [3] -0.021 | [4] -0.006 | [5] -0.015 | [6] -0.022 | [7] -0.081 | [8] 0.024 | [9] -0.022 | [10] -0.014

HMCES (UniProt Q96FZ2)
inactive: [1] 0.127 | [2] -0.012 | [3] -0.028 | [4] -0.056 | [5] -0.034 | [6] -0.02 | [7] 0.09 | [8] 0.093 | [9] -0.012 | [10] 0.019

HOOK3 (UniProt Q86VS8)
inactive: [1] 0.005 | [2] 0.029 | [3] 0.015 | [4] -0.002 | [5] -0.003 | [6] 0.021 | [7] -0.039 | [8] 0.006 | [9] 0.018 | [10] 0.009

HNRNPD isoform 3 (UniProt Q14103)
inactive: [1] 0.024 | [2] -0.028 | [3] -0.033 | [4] 0.128 | [5] 0.014 | [6] 0.077 | [7] -0.077 | [8] -0.023 | [9] 0.048 | [10] -0.066

HPRT1 (UniProt P00492)
inactive: [1] 0.004 | [2] 0.009 | [3] -0.064 | [4] 0.02 | [5] 0.014 | [6] 0.002 | [7] -0.056 | [8] 0.032 | [9] -0.008 | [10] -0.016

HGS (UniProt O14964)
inactive: [1] -0.023 | [2] 0.012 | [3] -0.019 | [4] -0.004 | [5] 0.003 | [6] -0.002 | [7] -0.005 | [8] -0.007 | [9] 0.012 | [10] -0.058

HMGB3 (UniProt O15347)
inactive: [1] 0.014 | [2] 0.027 | [3] -0.098 | [4] 0.113 | [5] 0.026 | [6] -0.023 | [7] 0.049 | [8] -0.073 | [9] 0 | [10] -0.033

HSD17B11 (UniProt Q8NBQ5)
inactive: [1] 0.021 | [2] -0.023 | [3] -0.01 | [4] 0.016 | [5] 0.024 | [6] 0.036 | [7] -0.009 | [8] 0.033 | [9] 0.004 | [10] 0.043

Retrieved one by one from above, 2 records:
HPRT1 (UniProt P00492)
inactive: [1] 0.004 | [2] 0.009 | [3] -0.064 | [4] 0.02 | [5] 0.014 | [6] 0.002 | [7] -0.056 | [8] 0.032 | [9] -0.008 | [10] -0.016

HOOK3 (UniProt Q86VS8)
inactive: [1] 0.005 | [2] 0.029 | [3] 0.015 | [4] -0.002 | [5] -0.003 | [6] 0.021 | [7] -0.039 | [8] 0.006 | [9] 0.018 | [10] 0.009

Later entries.

HNRNPH3 (UniProt P31942)
inactive: [1] 0.002 | [2] 0.032 | [3] 0.021 | [4] 0.012 | [5] -0.073 | [6] 0.061 | [7] -0.058 | [8] -0.07 | [9] -0.022 | [10] -0.003

HGH1 (UniProt Q9BTY7)
inactive: [1] 0.027 | [2] 0.009 | [3] 0.032 | [4] -0.031 | [5] -0.039 | [6] 0.01 | [7] -0.05 | [8] -0.052 | [9] 0.016 | [10] 0.011

HIST2H3A (UniProt Q71DI3)
inactive: [1] -0.017 | [2] 0.015 | [3] -0.021 | [4] -0.009 | [5] 0.006 | [6] 0.004 | [7] 0.061 | [8] 0.028 | [9] 0.007 | [10] -0.074

HSDL1 (UniProt Q3SXM5)
inactive: [1] -0.029 | [2] 0.011 | [3] 0.027 | [4] 0.032 | [5] 0.027 | [6] -0.031 | [7] -0.227 | [8] 0.04 | [9] 0.017 | [10] -0.015

HELB (UniProt Q8NG08)
inactive: [1] -0.071 | [2] 0 | [3] 0.024 | [4] -0.087 | [5] -0.051 | [6] 0.014 | [7] 0.026 | [8] 0.005 | [9] -0.053 | [10] -0.006

HMGCL (UniProt P35914)
inactive: [1] -0.017 | [2] 0.01 | [3] 0.027 | [4] 0.037 | [5] 0.014 | [6] 0.037 | [7] 0.05 | [8] -0.02 | [9] -0.013 | [10] -0.01

HHEX (UniProt Q03014)
inactive: [1] -0.034 | [2] -0.026 | [3] 0.21 | [4] 0.287 | [5] -0.003 | [6] 0.111 | [7] 0.074 | [8] 0.028 | [9] 0.054 | [10] -0.024

HPCAL1 (UniProt P37235)
inactive: [1] 0.009 | [2] 0.02 | [3] -0.002 | [4] 0.01 | [5] 0.052 | [6] 0.035 | [7] -0.072 | [8] 0.144 | [9] 0.025 | [10] -0.008

HSP90AA1 isoform 2 (UniProt P07900)
inactive: [1] -0.006 | [2] 0.001 | [3] -0.011 | [4] -0.057 | [5] 0.001 | [6] -0.017 | [7] 0.125 | [8] -0.049 | [9] -0.006 | [10] -0.007

HIKESHI (UniProt Q53FT3)
inactive: [1] -0.146 | [2] 0.004 | [3] 0.065 | [4] 0.003 | [5] 0.009 | [6] 0.083 | [7] -0.12 | [8] -0.005 | [9] 0 | [10] -0.002

HOMEZ isoform 3 (UniProt Q8IX15)
inactive: [1] 0.126 | [2] 0.069 | [3] 0.095 | [4] 0.033 | [5] -0.049 | [6] 0.117 | [7] -0.095 | [8] 0.244 | [9] 0.032 | [10] -0.011

HECTD1 (UniProt Q9ULT8)
inactive: [1] -0.003 | [2] 0.018 | [3] 0.054 | [4] 0.027 | [5] -0.035 | [6] 0.009 | [7] -0.039 | [8] -0.011 | [9] 0.001 | [10] 0.016

HNRNPF (UniProt P52597)
inactive: [1] -0.015 | [2] 0.03 | [3] 0.005 | [4] 0.009 | [5] -0.065 | [6] 0.013 | [7] -0.053 | [8] 0.008 | [9] -0.013 | [10] -0.024

HSPA5 (UniProt P11021)
inactive: [1] -0.049 | [2] -0.043 | [3] -0.028 | [4] -0.083 | [5] 0.004 | [6] 0.011 | [7] 0.043 | [8] -0.027 | [9] -0.003 | [10] 0.007

HIST2H2AA3 (UniProt Q6FI13)
inactive: [1] -0.078 | [2] 0.028 | [3] -0.012 | [4] -0.007 | [5] -0.006 | [6] 0.012 | [8] -0.217 | [9] -0.034 | [10] -0.116
active: [7] 0.694

HMGB1 (UniProt P09429)
inactive: [1] -0.01 | [2] -0.014 | [3] -0.013 | [4] 0.102 | [5] 0.035 | [6] -0.039 | [8] -0.184 | [9] -0.011 | [10] -0.075
active: [7] 0.389

HMGN1 (UniProt P05114)
inactive: [1] 0.033 | [2] -0.037 | [3] -0.084 | [4] 0.057 | [5] 0.031 | [6] -0.017 | [7] 0.144 | [8] -0.013 | [9] -0.011 | [10] 0.02

HSP90AB1 (UniProt P08238)
inactive: [1] -0.021 | [2] 0.01 | [3] -0.013 | [4] 0.019 | [5] -0.003 | [6] -0.004 | [7] 0.106 | [8] -0.064 | [9] 0.004 | [10] -0.012

HK2 (UniProt P52789)
inactive: [1] 0.046 | [2] 0.006 | [3] 0.009 | [4] -0.044 | [5] -0.049 | [6] 0.023 | [7] -0.015 | [8] -0.075 | [9] -0.009 | [10] 0.001
